The values that follow come from paper PMC3161067, “Combined SAXS/EM Based Models of the S. elongatus Post-Translational Circadian Oscillator and its Interactions with the Output His-Kinase SasA” (PLoS ONE, 2011).

In experiment [1] the target is KaiB/ΔKaiC binary complex (S. elongatus). Kind of experiment: native gel or EMSA; native PAGE band shift, PhastSystem, PhastGel Gradient 4-15% or 8-25%, Coomassie stain; both purified. Background: Mobility shift assays separate free from complexed probe on a gel.
The target in experiment [2] is C-terminally truncated KaiC, KaiC-Δ489 (S. elongatus). The experiment can be described thus: negative-stain EM; mixture of KaiC-Δ489, wt KaiB and wt SasA; 6,013 particles in 25 class averages; both purified.

Results are given in words; binding and its absence hold for the method and conditions named. A result given as binding can be weak or reduced; the word gives no strength. For some assays here: Sequences can lack the tags named with a protein.

B1: N-terminal KaiA domain (domain or fragment, UniProt Q79PF6 2-284)
chain: LSQIAICIWVESTAILQDCQRALSADRYQLQVCESGEMLLEYAQTHRDQIDCLILVAANPSFRAVVQQLCFEGVVVPAIVVGDRDSEDPDEPAKEQLYHSAELHLGIHQLEQLPYQVDAALAEFLRLAPVETMADHIMLMGANHDPELSSQQRDLAQRLQERLGYLGVYYKRDPDRFLRNLPAYESQKLHQAMQTSYREIVLSYFSPNSNLNQSIDNFVNMAFFADVPVTKVVEIHMELMDEFAKKLRVEGRSEDILLDYRLTLIDVIAHLCEMYRRSIPRET
As for B1, the binding entry in experiment [1] was “binds”.

B2: SasA (S. elongatus His kinase) (natural protein, UniProt Q06904 1-387, looked up)
chain: MGESLSPQALAQPLLLQLFVDTRPLSQHIVQRVKNILAAVEATVPISLQVINVADQPQLVEYYRLVVTPALVKIGPGSRQVLSGIDLTDQLANQLPQWLVQQEAFFADREPPEVNIPFTELGQPETPALQQADAFFQLQQQYADLSERTKFLEQVIALVAHDLRNPLTAALLAVDTIQIRSQSFSVATAKEMQGLCSLFDQARSQLREIERMIAEILEATRHSGESLRINPREVVFEPLLQQVLEQLHERWRSKQQQLITDVPGDLPTLYADPDRLRQVLVNLLDNAIKYTPPGGTITIAALHRTSQKVQISISDTGSGIPRDQLSVIFKNLVRLSRDSSQEGYGIGLSVCQRIVQAHFGRIWVASELGQGSTFHFTMPVYRYTMPC
notes: SasA, adaptive-response sensory His kinase, Synechococcus elongatus; N-terminal sensory domain is residues 1-97; its expression and purification are not described; also called full-length SasA; wt SasA
Take B2: in experiment [2], the binding result is listed as “binds”.
